Test results published in the supplement of paper PMC10849652.
The list shows a part of the results.

Amino acid sequences for entries named in this document (tags omitted). A change or cut given only in a name is not applied to a line headed by its entry.
UniProt Q15208: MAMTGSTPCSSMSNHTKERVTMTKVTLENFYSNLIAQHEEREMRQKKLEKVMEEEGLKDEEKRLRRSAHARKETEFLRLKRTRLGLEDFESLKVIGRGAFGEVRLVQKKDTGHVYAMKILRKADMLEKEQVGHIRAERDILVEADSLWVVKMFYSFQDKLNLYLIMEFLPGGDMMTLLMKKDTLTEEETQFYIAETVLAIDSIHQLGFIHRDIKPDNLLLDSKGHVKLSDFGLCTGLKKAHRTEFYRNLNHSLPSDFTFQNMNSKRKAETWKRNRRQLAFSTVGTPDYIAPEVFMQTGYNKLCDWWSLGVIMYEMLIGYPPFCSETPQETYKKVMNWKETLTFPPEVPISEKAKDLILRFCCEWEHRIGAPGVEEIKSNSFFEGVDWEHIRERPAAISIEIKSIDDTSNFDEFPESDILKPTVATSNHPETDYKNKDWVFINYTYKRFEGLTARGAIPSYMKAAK
UniProt Q8TCJ2: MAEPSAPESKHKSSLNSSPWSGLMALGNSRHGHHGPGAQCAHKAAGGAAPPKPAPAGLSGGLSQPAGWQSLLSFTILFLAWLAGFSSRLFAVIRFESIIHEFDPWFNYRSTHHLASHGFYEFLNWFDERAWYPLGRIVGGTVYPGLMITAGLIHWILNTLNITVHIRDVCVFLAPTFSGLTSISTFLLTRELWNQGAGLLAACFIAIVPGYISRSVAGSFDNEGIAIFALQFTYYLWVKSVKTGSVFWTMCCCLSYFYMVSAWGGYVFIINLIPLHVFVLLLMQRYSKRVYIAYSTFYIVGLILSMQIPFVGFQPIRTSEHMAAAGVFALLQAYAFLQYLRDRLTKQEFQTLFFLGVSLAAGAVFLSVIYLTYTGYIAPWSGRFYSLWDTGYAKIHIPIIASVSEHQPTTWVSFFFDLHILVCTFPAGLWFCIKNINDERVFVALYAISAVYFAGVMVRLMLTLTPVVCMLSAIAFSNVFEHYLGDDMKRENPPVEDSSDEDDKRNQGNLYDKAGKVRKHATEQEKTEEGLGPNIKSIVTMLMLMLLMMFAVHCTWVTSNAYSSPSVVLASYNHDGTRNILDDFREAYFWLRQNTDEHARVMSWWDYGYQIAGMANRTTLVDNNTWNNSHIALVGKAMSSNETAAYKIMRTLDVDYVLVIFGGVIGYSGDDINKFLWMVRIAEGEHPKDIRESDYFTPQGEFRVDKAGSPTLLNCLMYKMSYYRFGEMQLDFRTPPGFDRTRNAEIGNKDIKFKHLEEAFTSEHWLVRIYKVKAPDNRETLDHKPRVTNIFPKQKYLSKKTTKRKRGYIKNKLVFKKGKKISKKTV
UniProt Q9UH99: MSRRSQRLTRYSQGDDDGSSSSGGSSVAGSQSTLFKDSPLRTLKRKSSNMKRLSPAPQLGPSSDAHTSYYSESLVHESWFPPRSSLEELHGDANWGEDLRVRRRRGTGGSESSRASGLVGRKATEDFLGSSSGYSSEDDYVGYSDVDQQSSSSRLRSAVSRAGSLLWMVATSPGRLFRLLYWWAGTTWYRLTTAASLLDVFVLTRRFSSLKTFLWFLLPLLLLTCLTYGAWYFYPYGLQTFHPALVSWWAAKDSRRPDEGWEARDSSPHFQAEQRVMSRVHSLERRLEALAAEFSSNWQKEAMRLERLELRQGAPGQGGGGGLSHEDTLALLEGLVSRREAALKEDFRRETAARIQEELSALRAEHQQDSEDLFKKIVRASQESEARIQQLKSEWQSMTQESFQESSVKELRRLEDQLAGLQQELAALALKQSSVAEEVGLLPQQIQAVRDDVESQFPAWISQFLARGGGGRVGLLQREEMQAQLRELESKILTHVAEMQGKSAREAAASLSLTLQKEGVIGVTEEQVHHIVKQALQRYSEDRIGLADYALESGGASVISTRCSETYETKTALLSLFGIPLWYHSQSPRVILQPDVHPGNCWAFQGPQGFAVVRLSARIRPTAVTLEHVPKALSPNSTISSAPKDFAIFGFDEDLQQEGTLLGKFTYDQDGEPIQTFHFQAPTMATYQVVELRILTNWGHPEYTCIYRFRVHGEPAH
UniProt Q86VP1, whole entry, looked up: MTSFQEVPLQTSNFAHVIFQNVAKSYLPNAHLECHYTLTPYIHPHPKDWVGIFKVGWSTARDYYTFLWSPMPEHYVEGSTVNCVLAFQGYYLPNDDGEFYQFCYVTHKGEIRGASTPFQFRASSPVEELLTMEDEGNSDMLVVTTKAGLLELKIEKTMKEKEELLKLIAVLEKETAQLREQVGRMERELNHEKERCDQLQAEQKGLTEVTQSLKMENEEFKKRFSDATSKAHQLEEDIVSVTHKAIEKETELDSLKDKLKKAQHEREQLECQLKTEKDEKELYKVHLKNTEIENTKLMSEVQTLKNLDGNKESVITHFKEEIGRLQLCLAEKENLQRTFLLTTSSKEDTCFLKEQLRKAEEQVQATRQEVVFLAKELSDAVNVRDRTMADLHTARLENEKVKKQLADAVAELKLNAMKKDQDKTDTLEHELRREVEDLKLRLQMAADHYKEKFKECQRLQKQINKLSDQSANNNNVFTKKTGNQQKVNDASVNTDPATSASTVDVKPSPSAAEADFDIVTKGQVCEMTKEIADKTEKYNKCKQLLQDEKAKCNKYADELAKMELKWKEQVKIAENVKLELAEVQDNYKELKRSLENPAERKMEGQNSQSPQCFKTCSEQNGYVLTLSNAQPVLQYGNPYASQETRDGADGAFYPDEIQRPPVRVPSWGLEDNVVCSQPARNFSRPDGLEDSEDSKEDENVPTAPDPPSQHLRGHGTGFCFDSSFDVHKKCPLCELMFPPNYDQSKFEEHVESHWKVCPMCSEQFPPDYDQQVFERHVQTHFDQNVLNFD
UniProt O75528: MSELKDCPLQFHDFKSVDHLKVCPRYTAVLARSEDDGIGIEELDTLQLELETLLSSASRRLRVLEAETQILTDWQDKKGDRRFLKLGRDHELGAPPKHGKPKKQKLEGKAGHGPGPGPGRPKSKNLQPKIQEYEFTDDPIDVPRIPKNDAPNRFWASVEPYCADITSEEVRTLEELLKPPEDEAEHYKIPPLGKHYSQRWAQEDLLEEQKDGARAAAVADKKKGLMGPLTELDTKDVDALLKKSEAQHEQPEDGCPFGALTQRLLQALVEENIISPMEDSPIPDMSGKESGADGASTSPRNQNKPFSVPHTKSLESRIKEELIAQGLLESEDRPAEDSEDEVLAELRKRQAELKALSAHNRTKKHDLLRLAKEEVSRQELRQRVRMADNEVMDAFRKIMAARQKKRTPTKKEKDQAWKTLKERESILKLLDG
UniProt Q13190: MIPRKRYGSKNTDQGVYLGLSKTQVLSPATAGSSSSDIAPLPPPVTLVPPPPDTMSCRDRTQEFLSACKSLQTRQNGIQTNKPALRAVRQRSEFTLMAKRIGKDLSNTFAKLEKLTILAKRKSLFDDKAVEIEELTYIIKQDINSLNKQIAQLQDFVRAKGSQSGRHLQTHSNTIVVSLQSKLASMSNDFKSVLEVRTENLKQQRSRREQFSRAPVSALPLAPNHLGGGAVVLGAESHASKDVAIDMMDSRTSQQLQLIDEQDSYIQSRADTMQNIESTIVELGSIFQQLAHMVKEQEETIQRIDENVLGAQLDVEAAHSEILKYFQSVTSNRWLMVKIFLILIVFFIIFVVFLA

Tests used:
Test in all cases: log2 fold change, soluble protein after heating vs DMSO (PISA); higher = thermal stabilisation; K562 cells, 10 uM, 30 min; active = over 0.2 and 3.5 SD of the protein, either way, in both replicates (recomputed)
[1] = compound: CC1=C(C=C(C=C1)NC(=O)C2=CC(=CC=C2)C(C)(C)C#N)NC3=CC4=C(C=C3)N=CN(C4=O)C
How it was run: (§1)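 Aliquots of K562 cells (2×10^6 cells/mL) treated with 10 μM compound for 30 min were heated for 3 min over 48°C-58°C. After pooling and extraction in PBS with 0.5% NP-40 at 4°C, soluble protein from a 21,000xg, 90 min spin was quantified by TMTpro 16plex LC-MS/MS with channel sums equalised. Thermal stability is expressed against control samples, from duplicates, as a log2 fold change.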

[2] = compound: CC1=C(C=C(C=C1)NC(=O)C2=CC(=CC=C2)N(C)C)NC(=O)C3=CC=C(C=C3)O
How it was run: as §1

[3] = compound: CC1=CC=C(C=C1)SC2=C3C=C(SC3=CN=C2)C(=O)N
How it was run: as §1

[4] = compound: CC1=NC(=CC=C1)C2=C(N=C(N2)C(C)(C)C)C3=CC4=NC=CN=C4C=C3
How it was run: as §1

[5] = compound: CCCCN(Cc1ccc(C(=O)NO)cc1)C(=O)Nc1ccccc1 [Nexturastat A]
How it was run: as §1

[6] = compound: CCCS(=O)(=O)Nc1ccc(F)c(C(=O)c2c[nH]c3ncc(-c4ccc(Cl)cc4)cc23)c1F [vemurafenib]
How it was run: as §1

[7] = compound: CCCS(=O)(=O)Nc1ccc(F)c(C(=O)c2c[nH]c3ncc(Cl)cc23)c1F
How it was run: as §1

[8] = compound: CCCc1cc(C)[nH]c(=O)c1CNC(=O)c1cc(-c2ccnc(N3CCN(C)CC3)c2)cc2c1cnn2C(C)C
How it was run: as §1

[9] = compound: CCN(CC)Cc1ccc2cc(COC(=O)Nc3ccc(C(=O)NO)cc3)ccc2c1 [givinostat]
How it was run: as §1

[10] = compound: CCN(CCCOc1ccc2c(Nc3cc(CC(=O)Nc4cccc(F)c4)[nH]n3)ncnc2c1)CCOP(=O)(O)O [barasertib]
How it was run: as §1

[11] = compound: CC[C@@H]1C(=O)N(C)c2cnc(Nc3ccc(C(=O)NC4CCN(C)CC4)cc3OC)nc2N1C1CCCC1
How it was run: as §1

[12] = compound: CC[C@@H]1C(=O)N(C)c2cnc(Nc3ccc(C(=O)N[C@H]4CC[C@H](N5CCN(CC6CC6)CC5)CC4)cc3OC)nc2N1C(C)C [volasertib]
How it was run: as §1

[13] = compound: CC[C@H](C)N1C=C(C2=C(C=C(C=C21)C3=CN=C(C=C3)N4CCNCC4)C(=O)NCC5=C(C=C(NC5=O)C)C)C
How it was run: as §1

[14] = compound: CC[C@H](C)[C@@H](C(=O)N[C@@H]([C@@H](C)O)C(=O)N[C@@H](CC(C)C)C(=O)[C@]1(CO1)C)NC(=O)[C@H]([C@@H](C)CC)N(C)C(=O)C [epoxomicin]
How it was run: as §1

[15] = compound: CCn1cc(-c2ccnc3[nH]c(-c4cccc(CN(C)C)c4)cc23)c(-c2ccc(NC(=O)N(C)C)cc2)n1
How it was run: as §1

[16] = compound: CN(C)CC(=O)Nc1ccc2[nH]c(=O)c3ccccc3c2c1
How it was run: as §1

[17] = compound: CN1C2=C(C3=C1C(=O)N(N=C3)CC4=CC(=CC=C4)N)SC(=C2)S(=O)C
How it was run: as §1

[18] = compound: CN1CCC(CNc2ccc3ncc(-c4cccc(OC(F)(F)F)c4)n3n2)CC1
How it was run: as §1

[19] = compound: CCn1c(C(=O)N(C2CC2)C2CC2)cc2c3c(ncn3C)c(Nc3cc(C)n(C)n3)nc21
How it was run: as §1

[20] = compound: CN(CCOC1=CC=C(C=C1)C[C@H]2C(=O)NC(=O)S2)C3=CC=CC=N3 (racemic) [rosiglitazone]
How it was run: as §1

Target | log2 fold change [1] | log2 fold change [2] | log2 fold change [3] | log2 fold change [4] | log2 fold change [5] | log2 fold change [6] | log2 fold change [7] | log2 fold change [8] | log2 fold change [9] | log2 fold change [10] | log2 fold change [11] | log2 fold change [12] | log2 fold change [13] | log2 fold change [14] | log2 fold change [15] | log2 fold change [16] | log2 fold change [17] | log2 fold change [18] | log2 fold change [19] | log2 fold change [20]
STK39 (UniProt Q9UEW8) | inactive: -0.049 | inactive: 0.006 | inactive: -0.016 | inactive: 0.033 | inactive: 0.018 | inactive: 0.015 | inactive: 0.032 | inactive: 0.053 | inactive: 0.033 | inactive: 0.033 | inactive: -0.062 | inactive: -0.139 | inactive: 0.023 | inactive: 0.054 | inactive: -0.036 | inactive: -0.011 | inactive: 0.005 | active: -0.25 |  | 
STK38 (UniProt Q15208) | inactive: 0.099 | inactive: -0.054 | inactive: 0.013 | inactive: 0.004 | inactive: -0.062 | inactive: 0.091 | inactive: 0.12 | inactive: 0.049 | inactive: 0.048 | inactive: 0.022 | inactive: -0.107 | active: -0.363 | inactive: 0.106 | inactive: 0.035 | inactive: 0.003 | inactive: 0.059 | inactive: -0.005 | inactive: -0.068 |  | 
STT3B (UniProt Q8TCJ2) | inactive: 0.009 | inactive: 0.03 | inactive: -0.058 | inactive: -0.053 | inactive: 0.042 | inactive: -0.064 | inactive: -0.013 | inactive: 0.042 | inactive: 0.01 | inactive: -0.005 | inactive: 0.019 | inactive: 0.034 | inactive: -0.004 | inactive: 0.004 | inactive: 0.072 | inactive: -0.042 | inactive: 0.066 | inactive: 0.067 | inactive: -0.032 | inactive: -0.006
SUN2 (UniProt Q9UH99) | inactive: 0.023 | inactive: 0.001 | inactive: -0.017 | inactive: -0.025 | inactive: 0.005 | inactive: -0.026 | inactive: 0.015 | inactive: 0.013 | inactive: 0.005 | inactive: -0.012 | inactive: 0.016 | inactive: -0.064 | inactive: 0.01 | inactive: 0.045 | inactive: -0.032 | inactive: -0.012 | inactive: 0.015 | inactive: 0.057 |  | 
TAX1BP1 (UniProt Q86VP1) | inactive: 0.031 | inactive: -0.005 | inactive: -0.014 | inactive: -0.026 | inactive: -0.014 | inactive: -0.003 | inactive: 0.011 | inactive: -0.055 | inactive: -0.033 | inactive: -0.061 | inactive: -0.144 | active: -0.298 | inactive: -0.081 | inactive: -0.027 | inactive: -0.067 | inactive: 0 | inactive: -0.001 | inactive: 0.003 |  | 
TADA3 (UniProt O75528) | inactive: -0.037 | inactive: -0.054 | inactive: 0.034 | inactive: -0.041 | inactive: -0.027 | inactive: 0.069 | inactive: -0.01 | inactive: -0.048 | inactive: 0.041 | inactive: 0.023 | inactive: 0.033 | inactive: -0.037 | inactive: 0.045 | inactive: -0.026 | inactive: 0.046 | inactive: -0.027 | inactive: -0.025 | inactive: -0.027 | inactive: 0.048 | inactive: 0.058
STX5 (UniProt Q13190) | inactive: -0.035 | inactive: -0.005 | inactive: 0.072 | inactive: -0.019 | inactive: 0.016 | inactive: 0.015 | inactive: 0.139 | inactive: 0.062 | inactive: 0.059 | inactive: 0.117 | inactive: -0.046 | inactive: -0.206 | inactive: 0.109 | inactive: -0.014 | inactive: -0.132 | inactive: 0.067 | inactive: 0.006 | inactive: -0.025 | inactive: -0.096 | inactive: 0.056
SUPT6H (UniProt Q7KZ85) | inactive: -0.027 | inactive: -0.186 | inactive: 0.071 | inactive: -0.026 | inactive: -0.061 | inactive: 0.07 | inactive: 0.044 | inactive: 0.15 | inactive: 0.027 | inactive: -0.1 | inactive: -0.046 | inactive: -0.259 | inactive: 0.081 | inactive: 0.094 | inactive: -0.082 | inactive: 0.104 | inactive: 0.011 | inactive: -0.233 | inactive: -0.094 | inactive: 0.1
